Inconclusive results, whose numbers are uncertain, are shown with a selection of clear calls. Where the call is inconclusive, the potency comes from a doubtful curve fit. A note “side channel” means that the fit belongs to a control or component signal, not to the main read-out. The source made the active and inactive calls. The call rests on the fitted dose curve; in most records, active means well fitted inhibition curve with a large enough effect in the signal ratio, with a control signal flat (not every such curve was filed as active); inconclusive means small, poorly fitted or top-dose-only effect, or effect the other way, or a change in a side signal; inactive means no such curve, though single readings can be large or run the other way; the % refers to the signal ratio.
Each molecule was assayed against Peroxisome proliferator-activated receptor delta (Homo sapiens) (UniProt Q03181) (assay: qHTS assay for small molecule antagonists of peroxisome proliferator-activated receptor delta signaling (AID 588535)). Settings: HEK293T PPARd-UAS-bla, beta-lactamase FRET ratio, 18 h; activity change, negative = inhibition: at 76.7 µM (top of the series).
Description: NIH Chemical Genomics Center [NCGC] U.S. Environmental Protection Agency [EPA] National Institutes of Environmental Health Sciences [NIEHS] National Toxicology Program [NTP] NCGC Assay Overview The Peroxisome proliferator-activated receptors (PPARs) are lipid-activated transcription factors of the nuclear receptor superfamily with three distinct subtypes namely PPAR alpha, PPAR delta (also called PPAR beta) and PPAR gamma. All these subtypes heterodimerizes with Retinoid X receptor (RXR) and have different physiological functions. […] This role of PPAR delta implicates the potential use of its ligands in the treatment of metabolic disorders.
NCGC Assay Protocol Summary Using a beta-lactamase reporter-gene under control Peroxisome Proliferator-Activated Receptor delta (PPAR-delta) response element, a cell-based assay [GeneBLAzer (PPAR-delta-UAS-bla assay developed by Invitrogen] was used to measure PPAR-delta ligands signaling. GeneBLAzer PPAR-delta-UAS-bla HEK293T cells were used with assay medium containing 2% charcoal/dextran FBS. The assay was performed in clear bottom black Greiner 1536-well plates. Library compounds were measured for their ability to inhibit the reporter gene activity. Compounds were screened in a titration series in 1536-well format. The fluorescence intensity (405 nm excitation, 460/530 nm emission) was measured using an EnVision plate reader. […] Concentration-response titration points for each compound were fitted to the Hill equation yielding concentrations of half-maximal inhibition (IC50) and maximal response (efficacy) values. qHTS protocol for PPAR-delta beta-lactamase assay in antagonist mode [Step] [Parameter] [Value] [Description] 1. Reagent; 5 uL; 4000 cells/well 2. Incubation; 37 C for 5 hrs 3. Compounds; 23 nL; 0.59 nM to 92 uM 4. […] Incubation; 37 C for 18 hrs 7. Detection reagent; 1 uL of CCF4-dye 8. Incubation; RT for 2 hrs 9. Detection; Fluorescence; Envision plate reader

The chains behind the UniProt entries cited, without tags or fusion partners. Where a name states a change or a piece, a line headed by the entry shows the natural chain unless it says otherwise.
UniProt Q03181: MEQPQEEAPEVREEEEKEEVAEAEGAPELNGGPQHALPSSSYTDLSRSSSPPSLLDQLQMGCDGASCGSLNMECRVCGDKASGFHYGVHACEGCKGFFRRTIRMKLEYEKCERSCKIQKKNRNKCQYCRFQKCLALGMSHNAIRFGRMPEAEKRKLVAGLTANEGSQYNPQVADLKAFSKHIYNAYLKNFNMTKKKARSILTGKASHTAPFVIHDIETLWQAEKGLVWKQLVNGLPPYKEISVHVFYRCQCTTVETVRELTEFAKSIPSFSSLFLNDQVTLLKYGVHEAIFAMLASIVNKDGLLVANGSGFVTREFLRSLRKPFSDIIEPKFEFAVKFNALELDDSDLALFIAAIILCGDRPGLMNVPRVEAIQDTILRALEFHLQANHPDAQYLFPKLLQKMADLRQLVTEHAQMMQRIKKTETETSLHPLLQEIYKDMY

Row | SMILES | Potency | activity change, negative = inhibition
1 | O=c1cc(-c2ccccc2)oc2cc(O)cc(O)c12 | inconclusive: 39.8 µM [fluorescent, side channel, partial curve] | –
2 | O=C(c1ccccc1)c1ccccc1 | inactive | –
3 | Cc1[nH]c(=O)c(C#N)cc1-c1ccncc1 | – | inconclusive: 33.6%
4 | S=c1[nH]c2ccccc2s1 | – | inconclusive: -25.2%
5 | CC(C)Cc1ccc(C(C)C(=O)O)cc1 (stereo unspecified) | inactive | –
6 | Cc1ccc(C)c(OCCCC(C)(C)C(=O)O)c1 | – | inconclusive: 6.3%
7 | O=C(O)c1cc(O)c2c(c1)C(=O)c1cccc(O)c1C2=O | inconclusive: 25.1 µM [fluorescent, side channel, partial curve] | –
8 | O=c1cc(-c2ccccc2)oc2ccccc12 | – | inconclusive: 16.1%
9 | O=c1[nH]cc(F)c(=O)[nH]1 | – | inconclusive: 25.4%
10 | O=C(Nc1ccc([N+](=O)[O-])cc1Cl)c1cc(Cl)ccc1O | inconclusive: 12.6 µM [side channel, rising, partial curve] | –
11 | NC(=O)N/N=C/c1ccc([N+](=O)[O-])o1 | – | inconclusive: 15.1%
12 | Oc1ccc(/C=C/c2cc(O)cc(O)c2)cc1 | inconclusive: 35.5 µM [side channel, rising, single point] | inconclusive: -7.57%
13 | CN(C)c1ccc(N=NS(=O)(=O)O)cc1 | – | inconclusive: -8.01%
14 | COc1ccc(Cl)cc1C(=O)NCCc1ccc(S(=O)(=O)NC(=O)NC2CCCCC2)cc1 | inconclusive: 25.1 µM [fluorescent, side channel, full curve, poor fit] | –
15 | O=C1CN(/N=C/c2ccc([N+](=O)[O-])o2)C(=O)N1 | – | inconclusive: -21.4%
16 | CC(C)OC(=O)c1cc(C(=O)OC(C)C)cc([N+](=O)[O-])c1 | inactive | –
17 | CCCOC(=O)c1ccc(O)cc1 | – | inconclusive: -20.9%

2 of the compounds above, as comma-separated lines:
Row,SMILES,Potency,"activity change, negative = inhibition"
2,O=C(c1ccccc1)c1ccccc1,inactive,–
4,S=c1[nH]c2ccccc2s1,–,inconclusive: -25.2%

Next records:

Row | SMILES | Potency | activity change, negative = inhibition
18 | Cc1ccnc2c1NC(=O)c1cccnc1N2C1CC1 | inactive | –
19 | Oc1ccc(O)cc1 | inconclusive: 25.1 µM [falling, partial curve, poor fit] | –
20 | c1cnc2c(c1)ccc1cccnc12 | active: 17.8 µM | –
21 | Nc1ccc(O)c([N+](=O)[O-])c1 | inactive | –
22 | CC(C)(C)c1ccc(O)c(O)c1 | inactive | –
23 | C[C@](N)(Cc1ccc(O)c(O)c1)C(=O)O | inactive | –
24 | NS(=O)(=O)c1cc(C(=O)O)c(NCc2ccco2)cc1Cl | inactive | –
25 | C#C[C@]1(O)CC[C@H]2[C@@H]3CCc4cc(O)ccc4[C@H]3CC[C@@]21C | inactive | –
26 | O=C(O)c1ccccc1Nc1cccc(C(F)(F)F)c1 | – | inconclusive: 8.87%
27 | CCN(CC)C(=S)SSC(=S)N(CC)CC | – | inconclusive: 6.67%
28 | C[C@H]1C[C@H]2[C@@H]3CCC4=CC(=O)C=C[C@]4(C)[C@@]3(Cl)[C@@H](O)C[C@]2(C)[C@@]1(O)C(=O)CO | inconclusive: 39.8 µM [fluorescent, side channel, partial curve, poor fit] | –
29 | c1ccc2[nH]c(-c3cscn3)nc2c1 | – | inconclusive: -12.8%
30 | Nc1ccc(O)c(C(=O)O)c1 | – | inconclusive: -7.87%
31 | CCN(CC)CCOc1ccc(/C(=C(\Cl)c2ccccc2)c2ccccc2)cc1 | inconclusive: 44.7 µM [fluorescent, side channel, single point] | –
32 | CNC(=O)Oc1ccc2c(c1)[C@]1(C)CCN(C)[C@@H]1N2C | – | inconclusive: -3.93%
33 | c1ccc2sc(SSc3nc4ccccc4s3)nc2c1 | inconclusive: 0.0126 µM [inhibitor, full curve, poor fit] | –

Same assay, conditions: HEK293T PPARd-UAS-bla, beta-lactamase FRET ratio, 18 h; at 76.7 µM (top of the series)

Row | SMILES | activity change, negative = inhibition
34 | Cc1ccc(C)c(OCCCC(C)(C)C(=O)O)c1 | inactive: 6.2%
35 | O=c1cc(-c2ccccc2)oc2ccccc12 | inactive: 9.27%
